Source: PubChem BioAssay AID686938 (Drosophila RNAi Screening Center, 2013)

- Aim: 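Knock-downs reducing store-operated calcium influx in Drosophila cells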 (primary screen)
- System: Drosophila S2R+ cells
- Reagent: long dsRNA against Drosophila genes, about 0.25 µg dsRNA per well, roughly 10,000 cells
- Timing: 5 days of knock-down before the calcium assay
- Challenge: thapsigargin (SERCA pump blocker) to empty calcium stores; entry signal taken 4 min after adding it
- Read-out: 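Duplicate raw fluo-4 intensities per well from a plate reader, at rest and four minutes after thapsigargin emptied calcium stores; entry-to-rest ratio filled for only some wells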
- Reading the numbers: calcium entry signal: higher = stronger calcium signal after store depletion; resting calcium signal: higher = higher resting calcium signal
- Rule for the call: 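Hit if the duplicate-averaged plate z-score for entry over resting signal is under −3; wells with weak total dye signal (Fmax z < −2) or more than 5 off-targets removed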
- Meaning of the calls: active = strongly reduced calcium entry; inactive = no strong reduction
The screen tested about 23,000 reagents; shown is an unselected part of those with a known target gene and a result. Of all reagents, 75 (0.33%) are marked active. 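Raw plate signals without normalisation; calls rest on plate z-scores that were not deposited; ratio present for only 364 wells.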 Entries without a mark were called inactive. Names joined by + are all predicted targets of the reagent. Not given: the dose of the treatment.

gene | amplicon | calcium entry signal, replicate 1 (fluorescence units) | calcium entry signal, replicate 2 (fluorescence units) | resting calcium signal, replicate 1 (fluorescence units) | resting calcium signal, replicate 2 (fluorescence units)
CG12824 | DRSC06173 | 3.28e7 | 3.23e7 | 1.50e7 | 1.40e7
CG9117 | DRSC03141 | 4.08e7 | 3.44e7 | 1.95e7 | 1.64e7
iav | DRSC18363 | 3.30e7 | 4.13e7 | 1.66e7 | 1.96e7
CG6294 + CG6299 + CG15642 | DRSC19981 | 2.46e7 | 3.24e7 | 1.40e7 | 1.50e7
olf186-M | DRSC07657 | 4.53e7 | 4.06e7 | 1.84e7 | 1.97e7
PIG-F | DRSC11069 | 2.78e7 | 4.68e7 | 1.28e7 | 2.03e7
Tollo | DRSC11305 | 3.32e7 | 4.58e7 | 1.68e7 | 1.79e7
CG13229 | DRSC06349 | 1.70e7 | 3.24e7 | 9.97e6 | 1.30e7
Fem-1 | DRSC07322 | 2.92e7 | 3.62e7 | 1.49e7 | 1.68e7
mEFG1 | DRSC02758 | 3.29e7 | 3.39e7 | 1.67e7 | 1.67e7
Sema1a | DRSC03433 | 3.41e7 | 5.27e7 | 1.59e7 | 2.14e7
Grx1t | DRSC04530 | 5.07e7 | 6.22e7 | 2.60e7 | 2.60e7
CAHbeta | DRSC14449 | 3.04e7 | 3.49e7 | 1.27e7 | 1.55e7
CG4842 | DRSC10453 | 7.95e7 | 9.55e7 | 3.19e7 | 3.03e7
CG13203 | DRSC06327 | 2.70e7 | 3.94e7 | 1.40e7 | 1.83e7
CG13933 | DRSC08402 | 4.46e7 | 4.02e7 | 2.03e7 | 1.97e7
CG13622 | DRSC14624 | 3.88e7 | 4.49e7 | 2.23e7 | 1.92e7
Osi17 | DRSC12284 | 2.87e7 | 2.13e7 | 1.21e7 | 1.00e7
Drsl6 | DRSC08161 | 3.21e7 | 4.29e7 | 1.50e7 | 1.91e7
CAH15 | DRSC04534 | 4.72e7 | 4.40e7 | 2.00e7 | 1.79e7
CG30002 | DRSC05182 | 3.45e7 | 4.83e7 | 1.67e7 | 2.20e7
CG34161 | DRSC01132 | 4.23e7 | 5.43e7 | 2.09e7 | 2.65e7
Dhfr | DRSC16646 | 2.98e7 | 5.75e7 | 1.62e7 | 7.41e7
CG1409 | DRSC17910 | 3.31e7 | 2.62e7 | 1.58e7 | 1.25e7
